No constants are given. Whether binding was seen depends on the method and setting. In cells and extracts the contact can be indirect. Some binding calls cover weakened binding; strength is not graded here.
Target: HA-SmD2 (UniProt P62316)
Test: co-IP; exogenous SmD2 and p300 in transfected HEK293T cells; lysis buffer 20 mM HEPES pH 7.4, 150 mM NaCl, 1 mM EDTA, 0.1% Triton X-100; magnetic beads, 4 °C; immunoblot

Sequences of proteins named here, by UniProt entry; tags and fusion partners are left off.
UniProt P62316: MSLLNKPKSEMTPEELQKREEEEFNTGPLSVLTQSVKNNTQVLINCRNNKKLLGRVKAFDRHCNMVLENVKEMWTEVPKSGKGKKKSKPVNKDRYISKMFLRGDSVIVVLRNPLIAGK
UniProt Q09472: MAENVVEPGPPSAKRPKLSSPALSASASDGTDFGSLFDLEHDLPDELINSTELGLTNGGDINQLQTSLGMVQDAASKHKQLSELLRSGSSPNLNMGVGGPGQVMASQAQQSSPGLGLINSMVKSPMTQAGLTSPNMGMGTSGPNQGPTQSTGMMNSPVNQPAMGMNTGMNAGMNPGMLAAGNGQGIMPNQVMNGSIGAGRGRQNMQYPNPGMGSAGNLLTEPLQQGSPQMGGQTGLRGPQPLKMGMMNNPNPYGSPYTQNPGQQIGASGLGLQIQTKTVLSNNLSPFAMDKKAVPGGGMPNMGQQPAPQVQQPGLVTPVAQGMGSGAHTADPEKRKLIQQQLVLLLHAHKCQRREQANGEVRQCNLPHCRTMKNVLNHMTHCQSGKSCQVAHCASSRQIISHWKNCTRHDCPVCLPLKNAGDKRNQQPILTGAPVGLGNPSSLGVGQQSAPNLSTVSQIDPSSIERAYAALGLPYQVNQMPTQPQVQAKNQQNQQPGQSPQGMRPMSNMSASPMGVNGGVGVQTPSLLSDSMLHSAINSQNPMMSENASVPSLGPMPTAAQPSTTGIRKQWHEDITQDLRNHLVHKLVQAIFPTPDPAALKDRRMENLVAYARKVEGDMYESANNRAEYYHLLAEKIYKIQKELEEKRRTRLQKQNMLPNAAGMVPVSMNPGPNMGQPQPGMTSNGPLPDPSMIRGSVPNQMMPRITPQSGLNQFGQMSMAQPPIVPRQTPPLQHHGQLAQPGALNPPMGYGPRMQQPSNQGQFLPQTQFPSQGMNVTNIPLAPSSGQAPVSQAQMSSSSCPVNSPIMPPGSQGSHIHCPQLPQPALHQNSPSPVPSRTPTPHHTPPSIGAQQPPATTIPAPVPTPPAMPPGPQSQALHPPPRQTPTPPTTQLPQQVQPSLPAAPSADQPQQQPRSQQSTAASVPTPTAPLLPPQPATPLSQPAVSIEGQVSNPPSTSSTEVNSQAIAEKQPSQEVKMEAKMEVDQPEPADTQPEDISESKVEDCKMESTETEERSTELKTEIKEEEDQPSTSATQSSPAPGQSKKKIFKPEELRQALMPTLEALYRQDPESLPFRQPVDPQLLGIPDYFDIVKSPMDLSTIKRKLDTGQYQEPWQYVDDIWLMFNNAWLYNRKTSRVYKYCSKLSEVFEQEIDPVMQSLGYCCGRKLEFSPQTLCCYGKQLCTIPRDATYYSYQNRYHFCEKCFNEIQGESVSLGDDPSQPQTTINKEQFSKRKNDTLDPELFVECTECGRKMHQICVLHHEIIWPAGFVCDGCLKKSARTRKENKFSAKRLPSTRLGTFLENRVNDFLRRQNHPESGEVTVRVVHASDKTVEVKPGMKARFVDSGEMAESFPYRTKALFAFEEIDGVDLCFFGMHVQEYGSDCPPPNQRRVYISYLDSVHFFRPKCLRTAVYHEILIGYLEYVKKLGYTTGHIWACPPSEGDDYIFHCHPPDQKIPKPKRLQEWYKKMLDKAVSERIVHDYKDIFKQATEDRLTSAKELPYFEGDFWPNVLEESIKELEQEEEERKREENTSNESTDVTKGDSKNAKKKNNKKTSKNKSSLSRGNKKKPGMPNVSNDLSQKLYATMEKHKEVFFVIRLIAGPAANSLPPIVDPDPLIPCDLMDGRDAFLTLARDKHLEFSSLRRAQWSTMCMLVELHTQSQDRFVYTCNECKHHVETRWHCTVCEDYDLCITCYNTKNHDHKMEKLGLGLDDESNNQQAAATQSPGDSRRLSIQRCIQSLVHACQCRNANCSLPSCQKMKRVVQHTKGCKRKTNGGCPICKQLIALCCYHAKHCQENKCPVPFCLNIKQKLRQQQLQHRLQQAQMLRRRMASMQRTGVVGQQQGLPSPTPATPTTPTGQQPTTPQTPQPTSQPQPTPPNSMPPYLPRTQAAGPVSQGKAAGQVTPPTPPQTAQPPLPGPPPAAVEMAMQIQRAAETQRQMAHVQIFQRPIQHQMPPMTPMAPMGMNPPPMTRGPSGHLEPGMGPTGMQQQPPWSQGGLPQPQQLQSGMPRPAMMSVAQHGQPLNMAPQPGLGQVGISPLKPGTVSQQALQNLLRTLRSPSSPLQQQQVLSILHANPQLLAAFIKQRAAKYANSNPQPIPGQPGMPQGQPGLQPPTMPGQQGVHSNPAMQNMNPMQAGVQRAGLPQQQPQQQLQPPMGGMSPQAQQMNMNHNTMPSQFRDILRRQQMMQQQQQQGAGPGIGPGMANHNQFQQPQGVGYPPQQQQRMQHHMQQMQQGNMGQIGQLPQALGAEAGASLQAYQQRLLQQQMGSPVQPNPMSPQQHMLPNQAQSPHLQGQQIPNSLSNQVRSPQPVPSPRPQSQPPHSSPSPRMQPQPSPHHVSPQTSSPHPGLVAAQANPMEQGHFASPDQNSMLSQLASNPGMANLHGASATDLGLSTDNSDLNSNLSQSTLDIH

- binding: binds
Substance: Flag-tagged p300 (from UniProt Q09472 1-2414) (enzyme)

From paper PMC11189467
